Sequences of proteins named here, by UniProt entry; tags and fusion partners are left off. Residues count along the entry.
UniProt Q5S007, 1879-2138 limits assumed: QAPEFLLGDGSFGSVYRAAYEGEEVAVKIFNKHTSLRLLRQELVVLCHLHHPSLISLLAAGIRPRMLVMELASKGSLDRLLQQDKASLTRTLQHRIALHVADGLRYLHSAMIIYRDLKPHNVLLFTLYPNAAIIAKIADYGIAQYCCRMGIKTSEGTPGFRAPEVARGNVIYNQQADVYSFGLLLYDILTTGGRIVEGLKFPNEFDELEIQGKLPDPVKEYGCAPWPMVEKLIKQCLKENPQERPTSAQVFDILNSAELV

According to US20240208972A1, “LRRK2 INHIBITORS AND USES THEREOF” (NEURON23, INC., priority 2022, published 2024):

Assays:
[1] = biological target: wt human LRRK2, catalytic site (Homo sapiens, UniProt Q5S007); test: TR-FRET LanthaScreen Tb Kinase Activity Assay, LRRK2 kinase inhibition; conditions: read-out: LRRK2 IC50; 2 nM wt human LRRK2, 400 nM peptide, 38 μM ATP
Procedure: The compounds disclosed herein were tested for their inhibitory effect on LRRK2 kinase according to the following procedures.
The protocol for basic TR-FRET LanthaScreen Tb Kinase Activity Assay inhibitor studies is as follows. LanthaScreen Kinase Activity Assays (ThermoFisher/USA) to evaluate inhibitors were performed by addition of 100 nL of test compound in the corresponding DMSO dilutions/5 L of kinase/fluorescein-ERM(LRRKtide) peptide mixture, Compound & kinase were pre-incubated for 15 minutes, then 5 μl of ATP into 384 well small volume plates. After incubation for 120 minutes at room temperature, the detection reagents containing Tb-anti-pLRRKtide antibody were added to monitor the phosphrylation level of peptide. Then, after 60 min minutes incubation at room temperature plates were read in Envision. Data analysis of emission ratios was according to the LanthaScreen Tb Kinase Activity Assay protocol.
Kinase and assay components were adjusted to final concentrations according to the kit protocol. For LRRK2: 2 nM wt human LRRK2, catalytic site, catalytic site (ThermoFisher/USA), 400 nM peptide, 38 μM ATP in 1× Kinase Buffer A. […]
Detection step: Addition of 10 μl EDTA & antibody, read plate after 60 minutes. […]

[2] = tested on: human hepatocyte; test: Human hepatocyte stability, in vitro h-Hept CLpredict; conditions: human hepatocytes, predicted hepatic clearance; cells without asterisk
Procedure: The compounds disclosed herein were tested in vitro on human hepatocyte for in vitro h-Hept CLpredict according to the following procedures. • 1. Compound sock solutions were prepared by dissolving test compound and positive control in dimethyl sulfoxide (DMSO) at a concentration of 10 mM. Stock solutions were then diluted to 100 μM solutions by combining 198 μL of 50% acetonitrile/50% water with 2 μL of the 10 mM stock stock in separate conical tubes. • 2. Cryopreserved hepatocytes were prepared as follows: Incubation medium (William's E Medium supplemented with GlutaMAX) and hepatocyte thawing medium were placed in a 37° C. water bath and allowed to warm for at least 15 minutes prior to use. […] Cells were counted using acridine orange and propidium iodide (AO/PI) staining, and the viable cell density was determined. […]
All calculations were carried out using Microsoft Excel. Peak area ratios (PAR) were determined from extracted ion chromatograms. The in vitro half-life (t1/2) of parent compound was determined by regression analysis of the percent parent disappearance vs. time curve as follows:
The in vitro half-life (in vitro t1/2) was determined from the slope value: […]
The scaled-up intrinsic clearance (CLint, mL/min/kg), predicted hepatic clearance (CLH, mL/min/kg) and hepatic extraction ratio (ER) were calculated using the following equations: […]

[3] = tested on: Caco-2 cells; test: Caco-2 bidirectional permeability
Procedure: The compounds disclosed herein were tested in vitro on CaCo2 cell penetration according to the following procedures.
Test compounds were prepared in dimethyl sulfoxide (DMSO).
Caco-2 cells purchased from ATCC were seeded onto […] (PET) in 96-well Corning Insert plates at 1×10^5 cells/cm^2. The media were refreshed every 4 to 5 days until the 21st to 28th day for confluent cell monolayer formation.
Experiments were run in duplicate using a HBSS transport buffer containing 10 mM HEPES at pH 7.4. The test article TEST COMPOUND was tested bi-directionally at […] concentrations, the control compound digoxin was tested bi-directionally at 10 μM, and nadolol and metoprolol were tested at 2.0 μM in the A to B direction. Final DMSO concentrations were adjusted to less than 1%. The plates were incubated for 2 hours in a CO2 incubator at 37±1° C. with 5% CO2 at saturated humidity without shaking. Following incubation, samples were mixed with acetonitrile containing internal standard and centrifuged at 3200×g for 10 minutes. Then 200 μL of supernatant was taken from all samples. […] All samples were analyzed by LC-MS/MS. Concentrations of TEST COMPOUND and control compounds were determined in starting solutions, donor well solutions, and receiver well solutions using peak area ratios (PAR) of analyte to internal standard. […]
The apparent permeability (Papp), the % recovery and the efflux ratio were calculated as follows: • 1. […] Efflux Ratio=Papp (BA)/Papp (AB) • Where: • dCr/dt is the slope of the cumulative concentration in the receiver compartment versus time (mM/s). • Vr and Vd is the volume in the receiver and donor compartments (0.075 mL on the apical side, 0.25 mL on the basolateral side), respectively. • A is the surface area of the cell monolayer (0.0804 cm^2). • C0 is the measured donor concentrations (μM) at the beginning of the experiment. • Cd and Cr are the final measured concentrations in the donor and receiver compartments, respectively. […]

Fc1cc(N2CCOCC2)cc2c1NC(c1c(F)cccc1F)=Nc1cn[nH]c1-2
IC50 [1]: 0.002 to 0.1 µM | hHep Cl (mL/min/kg) [2]: I (I (Intermediate C1)”: 6.3 mL/min/kg≤Hep Cl≤14.7 mL/min/kg) | Caco-2 A2B (10^−6 cm/s) ([3]; A to B, HBSS pH 7.4, 2 hours): H (H (High permeability)”: A2B (B2A)>5) | Caco-2 B2A (10^−6 cm/s) ([3]; B to A, HBSS pH 7.4, 2 hours): H (H (High permeability)”: A2B (B2A)>5) | Caco-2 ER ([3]; Efflux Ratio=Papp (BA)/Papp (AB)): N (N (Non-substrate)”: ER<2.5)

Structures were worked out from names or drawings and are uncertain.
